{"source": "patent US20250073210A1", "about": "“Use of Ergothioneine for Enhancing Glutathione Level” (priority 2022, published 2025)", "type_in_all_cases": "cell-based, human", "key": {"MT1G": {"system": "MT1G", "test": "RT-qPCR PCR array mQPA-8-Nrf2, MT1G expression in NHEK", "method": "(§1) In the present study, the effects of compound L-Ergothioneine were investigated in normal human epidermal keratinocytes (NHEK) under basal or UV-irradiated conditions. More specifically, the effects of this compound were evaluated using RT-qPCR technology. Extracted mRNA was analyzed using a PCR array (“mQPA-8-Nrf2”) for the analysis of 8 target genes (including 1 housekeeping gene) selected for their role in Nrf2 pathway. Prior to this assay, a preliminary cytotoxicity assay was performed on compound L-Ergothioneine and Resveratrol (reference in basal condition) using a standard WST-8 reduction assay, in order to determine the concentrations to be tested in this study.\n(§2) Cell type: Normal human epidermal keratinocytes (NHEK) used at the 3rd passage. Culture conditions: 37° C., 5% CO2. Culture medium: Keratinocyte-SFM optimized for the assay, supplemented with Epidermal Growth Factor Pituitary extract. Assay medium: Keratinocyte-SFM optimized for the assay. Test compound: L-Ergothioneine in ultrapure water. Test concentrations: 0.5, 3 and 30 μM. Reference: Resveratrol. Test concentration: 20 μM.\n(§3) Keratinocytes were seeded in 24-well plates and cultured for 24 hours in culture medium and in assay medium for a further 24 hours. The medium was then replaced by assay medium containing or not (control) the compound or Resveratrol and cells were pre-incubated for 24 hours.\n(§4) After pre-incubation, the medium was then removed and replaced by a PBS solution. For basal conditions, the plate was kept in the dark during the irradiation time. For irradiated conditions, the cells were irradiated with UVB−275 mJ/cm^2 (+UVA−2 J/cm^2) using a SOL500 Sun Simulator equipped with an H2 filter (Dr. Hönle, AG). After irradiation time, the treatments were renewed, and the cells were incubated for 24 hours. All experimental conditions were performed in n=3. At the end of incubation, the cells were washed in phosphate buffered saline (PBS) solution and immediately frozen at −80° C.\n(§5) The expression of markers was analyzed using RT-qPCR method on total RNA extracted from the cell monolayers of each experimental condition (before RNA extraction, the replicates of the same experimental condition were pooled). The analysis of transcripts was performed in n=2 using a PCR array dedicated to research and adapted to ‘screening’ format and targeting 8 genes selected for their role in Nrf2 pathway.\n(§6) Total RNA was extracted from each sample using TriPure Isolation Reagent® according to the supplier's instructions. The amount and quality of RNA were evaluated using capillary electrophoresis (Bioanalyzer 2100, Agilent technologies). The complementary DNA (cDNA) was synthetized by reverse transcription of total RNA in presence of oligo(dT) and «Transcriptor Reverse Transcriptase» (Roche Molecular System Inc.). The cDNA quantities were then adjusted before PCR.\n(§7) The PCR (Polymerase Chain Reaction) were performed using the «LightCycler®» system (Roche Molecular System Inc.) according to the supplier's instructions. The reaction mix (10 μl final) was prepared as follows: 2.5 μl of cDNA; primers (forward and reverse); reagent mix (Roche) containing taq DNA polymerase, SYBR Green I and MgCl2.\n(§8) The incorporation of fluorescence in amplified DNA was continuously measured during the PCR cycles. […] The value selected for RE calculations is the “output point” (Ct) of the fluorescence curve. For a considered marker, the highest is the cycle number; the lowest is the mRNA quantity. The RE value was calculated with the formula: (½^number of cycles)×10^6. The PCR array used in the present study included 1 reference gene (RPS28)."}, "GCLM": {"system": "GCLM", "test": "RT-qPCR PCR array mQPA-8-Nrf2, GCLM expression in NHEK", "method": "as §1, §2, §3, §4, §5, §6, §7, §8"}, "HMOX1": {"system": "HMOX1", "test": "RT-qPCR PCR array mQPA-8-Nrf2, HMOX1 expression in NHEK", "method": "as §1, §2, §3, §4, §5, §6, §7, §8"}, "NQO1": {"system": "NQO1", "test": "RT-qPCR PCR array mQPA-8-Nrf2, NQO1 expression in NHEK", "method": "as §1, §2, §3, §4, §5, §6, §7, §8"}, "TXN": {"system": "TXN", "test": "RT-qPCR PCR array mQPA-8-Nrf2, TXN expression in NHEK", "method": "as §1, §2, §3, §4, §5, §6, §7, §8"}, "GCLC": {"system": "GCLC", "test": "RT-qPCR PCR array mQPA-8-Nrf2, GCLC expression in NHEK", "method": "as §1, §2, §3, §4, §5, §6, §7, §8"}, "TXNRD1": {"system": "TXNRD1", "test": "RT-qPCR PCR array mQPA-8-Nrf2, TXNRD1 expression in NHEK", "method": "as §1, §2, §3, §4, §5, §6, §7, §8"}, "RPS28": {"system": "RPS28", "test": "RT-qPCR PCR array mQPA-8-Nrf2, housekeeping gene RPS28", "details": "basal conditions, 20 μM", "method": "In the present study, the effects of compound L-Ergothioneine were investigated in normal human epidermal keratinocytes (NHEK) under basal or UV-irradiated conditions. More specifically, the effects of this compound were evaluated using RT-qPCR technology. Extracted mRNA was analyzed using a PCR array (“mQPA-8-Nrf2”) for the analysis of 8 target genes (including 1 housekeeping gene) selected for their role in Nrf2 pathway. Prior to this assay, a preliminary cytotoxicity assay was performed on compound L-Ergothioneine and Resveratrol (reference in basal condition) using a standard WST-8 reduction assay, in order to determine the concentrations to be tested in this study. […]\nThe expression of markers was analyzed using RT-qPCR method on total RNA extracted from the cell monolayers of each experimental condition (before RNA extraction, the replicates of the same experimental condition were pooled). […]\nTotal RNA was extracted from each sample using TriPure Isolation Reagent® according to the supplier's instructions. The amount and quality of RNA were evaluated using capillary electrophoresis (Bioanalyzer 2100, Agilent technologies). […] The cDNA quantities were then adjusted before PCR. […]\nThe incorporation of fluorescence in amplified DNA was continuously measured during the PCR cycles. […] The value selected for RE calculations is the “output point” (Ct) of the fluorescence curve. […]"}, "[1]": {"details": "UV-irradiated (UVB-275 mJ/cm^2 +UVA-2 J/cm^2), 0.5 μM"}, "[2]": {"details": "UV-irradiated (UVB-275 mJ/cm^2 +UVA-2 J/cm^2), 3 μM"}, "[3]": {"details": "UV-irradiated (UVB-275 mJ/cm^2 +UVA-2 J/cm^2), 30 μM"}}, "note": "Where “and” joins values, the source holds several entries; their conditions need not be identical. Identical values can stand only once."}
{"smiles": "C[N+](C)(C)[C@@H](Cc1c[nH]c(=S)[nH]1)C(=O)[O-]", "note": "[L-Ergothioneine, (2S)-3-(2-thioxo-2,3-dihydro-1H-imidazol-4-yl)-2-(trimethylammonio)-propanoate]", "values": [{"measurement": "MT1G Cycles", "setting": "MT1G; [1]", "value": "27.67 and 27.74"}, {"measurement": "MT1G Cycles", "setting": "MT1G; [2]", "value": "27.52 and 27.57"}, {"measurement": "MT1G Cycles", "setting": "MT1G; [3]", "value": 27.72}, {"measurement": "MT1G Cycles", "setting": "MT1G; basal conditions, 0.5 μM", "value": "25.85 and 25.98"}, {"measurement": "MT1G Cycles", "setting": "MT1G; basal conditions, 3 μM", "value": "26.08 and 25.95"}, {"measurement": "MT1G Cycles", "setting": "MT1G; basal conditions, 30 μM", "value": "25.86 and 25.82"}, {"measurement": "GCLM Cycles", "setting": "GCLM; [1]", "value": "26.49 and 26.24"}, {"measurement": "GCLM Cycles", "setting": "GCLM; [2]", "value": "26.23 and 26.24"}, {"measurement": "GCLM Cycles", "setting": "GCLM; [3]", "value": "26.47 and 26.57"}, {"measurement": "GCLM Cycles", "setting": "GCLM; basal conditions, 0.5 μM", "value": "24.77 and 24.78"}, {"measurement": "GCLM Cycles", "setting": "GCLM; basal conditions, 3 μM", "value": "24.66 and 24.64"}, {"measurement": "GCLM Cycles", "setting": "GCLM; basal conditions, 30 μM", "value": "24.65 and 24.70"}, {"measurement": "HMOX1 Cycles", "setting": "HMOX1; [1]", "value": "25.94 and 26.05"}, {"measurement": "HMOX1 Cycles", "setting": "HMOX1; [2]", "value": "26.05 and 25.90"}, {"measurement": "HMOX1 Cycles", "setting": "HMOX1; [3]", "value": "25.92 and 25.85"}, {"measurement": "HMOX1 Cycles", "setting": "HMOX1; basal conditions, 0.5 μM", "value": "28.50 and 28.54"}, {"measurement": "HMOX1 Cycles", "setting": "HMOX1; basal conditions, 3 μM", "value": "28.54 and 28.19"}, {"measurement": "HMOX1 Cycles", "setting": "HMOX1; basal conditions, 30 μM", "value": "28.24 and 28.33"}, {"measurement": "NQO1 Cycles", "setting": "NQO1; [1]", "value": "31.98 and 31.69"}, {"measurement": "NQO1 Cycles", "setting": "NQO1; [2]", "value": "31.63 and 31.72"}, {"measurement": "NQO1 Cycles", "setting": "NQO1; [3]", "value": "31.24 and 31.47"}, {"measurement": "NQO1 Cycles", "setting": "NQO1; basal conditions, 0.5 μM", "value": "31.95 and 32.00"}, {"measurement": "NQO1 Cycles", "setting": "NQO1; basal conditions, 3 μM", "value": "31.86 and 31.81"}, {"measurement": "NQO1 Cycles", "setting": "NQO1; basal conditions, 30 μM", "value": "31.55 and 31.73"}, {"measurement": "TXN Cycles", "setting": "TXN; [1]", "value": "19.56 and 19.58"}, {"measurement": "TXN Cycles", "setting": "TXN; [2]", "value": "19.45 and 19.48"}, {"measurement": "TXN Cycles", "setting": "TXN; [3]", "value": "19.65 and 19.78"}, {"measurement": "TXN Cycles", "setting": "TXN; basal conditions, 0.5 μM", "value": "19.39 and 19.61"}, {"measurement": "TXN Cycles", "setting": "TXN; basal conditions, 3 μM", "value": "19.34 and 19.60"}, {"measurement": "TXN Cycles", "setting": "TXN; basal conditions, 30 μM", "value": "19.27 and 19.29"}, {"measurement": "GCLC Cycles", "setting": "GCLC; [1]", "value": "26.75 and 26.78"}, {"measurement": "GCLC Cycles", "setting": "GCLC; [2]", "value": "26.58 and 26.55"}, {"measurement": "GCLC Cycles", "setting": "GCLC; [3]", "value": "26.30 and 26.36"}, {"measurement": "GCLC Cycles", "setting": "GCLC; basal conditions, 0.5 μM", "value": "25.81 and 25.66"}, {"measurement": "GCLC Cycles", "setting": "GCLC; basal conditions, 3 μM", "value": "25.50 and 25.61"}, {"measurement": "GCLC Cycles", "setting": "GCLC; basal conditions, 30 μM", "value": "25.44 and 25.28"}, {"measurement": "TXNRD1 Cycles", "setting": "TXNRD1; [1]", "value": "24.14 and 23.99"}, {"measurement": "TXNRD1 Cycles", "setting": "TXNRD1; [2]", "value": "24.15 and 24.13"}, {"measurement": "TXNRD1 Cycles", "setting": "TXNRD1; [3]", "value": "24.07 and 24.16"}, {"measurement": "TXNRD1 Cycles", "setting": "TXNRD1; basal conditions, 0.5 μM", "value": "23.76 and 23.63"}, {"measurement": "TXNRD1 Cycles", "setting": "TXNRD1; basal conditions, 3 μM", "value": "23.65 and 23.67"}, {"measurement": "TXNRD1 Cycles", "setting": "TXNRD1; basal conditions, 30 μM", "value": 23.52}]}
{"smiles": "Oc1ccc(C=Cc2cc(O)cc(O)c2)cc1", "note": "[Resveratrol]", "values": [{"measurement": "MT1G Cycles", "setting": "MT1G; basal conditions, 20 μM", "value": "26.77 and 26.71"}, {"measurement": "GCLM Cycles", "setting": "GCLM; basal conditions, 20 μM", "value": "22.14 and 22.11"}, {"measurement": "HMOX1 Cycles", "setting": "HMOX1; basal conditions, 20 μM", "value": "26.35 and 26.53"}, {"measurement": "NQO1 Cycles", "setting": "NQO1; basal conditions, 20 μM", "value": "28.76 and 28.74"}, {"measurement": "TXN Cycles", "setting": "TXN; basal conditions, 20 μM", "value": "17.80 and 17.83"}, {"measurement": "GCLC Cycles", "setting": "GCLC; basal conditions, 20 μM", "value": "23.73 and 23.72"}, {"measurement": "TXNRD1 Cycles", "setting": "TXNRD1; basal conditions, 20 μM", "value": "21.35 and 21.22"}, {"measurement": "RPS28 Cycles", "setting": "RPS28", "value": "20.91 and 20.69"}]}
